The text below walks through data of article PMC10204293.

Chains of the proteins cited; added tags and fusions are not shown.
UniProt Q93009: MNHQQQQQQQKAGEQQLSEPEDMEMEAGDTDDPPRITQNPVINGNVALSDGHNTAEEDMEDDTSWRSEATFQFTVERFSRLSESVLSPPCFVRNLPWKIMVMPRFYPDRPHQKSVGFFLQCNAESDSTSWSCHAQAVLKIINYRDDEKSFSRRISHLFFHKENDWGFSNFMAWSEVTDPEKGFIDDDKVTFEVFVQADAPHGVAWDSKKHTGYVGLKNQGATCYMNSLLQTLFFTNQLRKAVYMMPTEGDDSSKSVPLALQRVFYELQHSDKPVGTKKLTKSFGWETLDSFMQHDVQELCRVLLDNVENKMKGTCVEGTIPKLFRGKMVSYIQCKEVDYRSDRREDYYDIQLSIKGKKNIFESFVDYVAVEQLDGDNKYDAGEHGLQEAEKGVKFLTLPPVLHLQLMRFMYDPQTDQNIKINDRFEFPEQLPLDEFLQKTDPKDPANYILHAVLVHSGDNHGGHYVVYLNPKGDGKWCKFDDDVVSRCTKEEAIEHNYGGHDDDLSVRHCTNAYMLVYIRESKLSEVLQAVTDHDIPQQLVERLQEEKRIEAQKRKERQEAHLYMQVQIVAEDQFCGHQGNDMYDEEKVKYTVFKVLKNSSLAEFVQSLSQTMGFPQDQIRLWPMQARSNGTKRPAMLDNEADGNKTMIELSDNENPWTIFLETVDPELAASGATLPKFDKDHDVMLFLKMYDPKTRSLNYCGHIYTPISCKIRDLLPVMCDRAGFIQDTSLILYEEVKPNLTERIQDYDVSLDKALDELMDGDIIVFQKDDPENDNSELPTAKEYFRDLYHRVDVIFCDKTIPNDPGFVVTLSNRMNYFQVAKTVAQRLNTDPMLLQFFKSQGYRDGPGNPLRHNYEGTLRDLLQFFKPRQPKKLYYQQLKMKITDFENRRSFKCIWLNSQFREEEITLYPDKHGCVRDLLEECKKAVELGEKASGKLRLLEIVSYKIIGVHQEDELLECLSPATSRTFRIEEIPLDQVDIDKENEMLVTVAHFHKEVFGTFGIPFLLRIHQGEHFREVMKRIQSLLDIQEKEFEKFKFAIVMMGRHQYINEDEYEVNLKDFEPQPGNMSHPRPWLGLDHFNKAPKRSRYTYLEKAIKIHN
UniProt Q9UER7: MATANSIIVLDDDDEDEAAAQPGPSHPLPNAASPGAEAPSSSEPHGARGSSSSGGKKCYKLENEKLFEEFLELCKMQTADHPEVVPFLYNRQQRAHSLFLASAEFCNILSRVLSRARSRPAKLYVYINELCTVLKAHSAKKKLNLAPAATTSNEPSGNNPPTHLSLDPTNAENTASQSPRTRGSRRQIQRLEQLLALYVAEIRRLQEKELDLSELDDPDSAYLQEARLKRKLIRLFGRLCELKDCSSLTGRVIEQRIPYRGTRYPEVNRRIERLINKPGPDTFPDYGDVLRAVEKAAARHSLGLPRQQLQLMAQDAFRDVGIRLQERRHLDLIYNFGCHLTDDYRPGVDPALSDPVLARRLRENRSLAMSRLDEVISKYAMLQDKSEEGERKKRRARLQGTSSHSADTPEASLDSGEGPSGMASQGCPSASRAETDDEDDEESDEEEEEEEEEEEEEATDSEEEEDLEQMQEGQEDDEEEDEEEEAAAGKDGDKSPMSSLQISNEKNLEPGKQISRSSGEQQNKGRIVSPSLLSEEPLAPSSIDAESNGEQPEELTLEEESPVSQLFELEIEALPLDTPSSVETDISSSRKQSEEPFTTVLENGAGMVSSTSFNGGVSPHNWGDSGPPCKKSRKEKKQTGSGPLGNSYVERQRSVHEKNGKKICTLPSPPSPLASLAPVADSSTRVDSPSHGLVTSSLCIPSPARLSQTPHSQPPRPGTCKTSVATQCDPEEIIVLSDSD

Results are given in words; binding and its absence hold for the method and conditions named. In cells and extracts the contact can be indirect. Some results given as binding are weak or reduced against the parent protein; the word gives no strength.

The target in experiment [1] is herpesvirus-associated ubiquitin-specific protease (HAUSP) (human (endogenous in MCF-7)) (UniProt Q93009). Briefly: co-IP; MCF-7 cells with or without S100A6 transfection, lysates in the presence of CaCl2 or EGTA; precipitation with anti-S100A6, anti-MDM2, anti-HAUSP or IgG and A/G beads overnight at 4 °C; western blot. Background: Immunoblotting shows a protein as a band on a membrane.

Experiment [2] addresses murine double minute 2 (MDM2) (human (endogenous in MCF-7)) (UniProt Q00987). The description is as above.

With “death domain-associated protein (DAXX) (from UniProt Q9UER7 1-740)”, the binding entry in experiment [1] and in experiment [2] was “binds” each time.
